These are yes or no findings as the source states them, for the method shown. In cells and extracts the contact can be indirect. A result given as binding can be weak or reduced; the word gives no strength.
Biological target: translocase of outer mitochondrial membrane 22 homolog (yeast) (TOMM22), VF1-tagged bait (human) (UniProt Q9NS69)
Experiment: split reporter

By UniProt entry, the sequences of proteins in these tests, tags left out. Where a name states a change or a piece, a line headed by the entry shows the natural chain unless it says otherwise.
UniProt Q9NS69: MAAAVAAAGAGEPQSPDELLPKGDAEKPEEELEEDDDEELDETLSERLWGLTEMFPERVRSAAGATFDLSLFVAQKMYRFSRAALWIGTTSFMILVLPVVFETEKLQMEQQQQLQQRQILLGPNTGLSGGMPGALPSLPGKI
UniProt O43169: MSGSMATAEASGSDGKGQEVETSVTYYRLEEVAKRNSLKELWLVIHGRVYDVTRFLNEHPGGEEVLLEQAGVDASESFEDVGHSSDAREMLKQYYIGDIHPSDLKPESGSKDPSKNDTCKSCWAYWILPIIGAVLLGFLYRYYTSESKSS

binding: binds
Substance: CYB5B, VF2-tagged prey (from UniProt O43169)
